{"source": "patent EP1493438A1", "about": "“Vanilloid receptor (VR) inhibitors for treatment of Human Immunodeficiency Virus (HIV)-mediated pain states” (Bayer HealthCare AG, priority 2003, dated 2005)", "system": "rat DRG neurons", "assay": "Inhibition of gp120-mediated CGRP-release from rat DRG neurons (Method B)", "conditions": "DRG neuron", "note": "pIC50: −log10 of the molar value.", "data": [{"smiles": "C[S+]([O-])c1ccc(-c2nc(-c3ccncc3)c(-c3ccc(F)cc3)[nH]2)cc1", "note": "(stereo not shown) [SB203580]", "values": [{"measurement": "pIC50", "value": 8.54}]}]}
